This test has as its target 2xHA-2xStrep-OTULIN, full-length wild type (UniProt Q96BN8). The test can be described thus: affinity purification with mass spectrometry.

Amino acid sequences for entries named in this document (tags omitted).
UniProt Q96BN8: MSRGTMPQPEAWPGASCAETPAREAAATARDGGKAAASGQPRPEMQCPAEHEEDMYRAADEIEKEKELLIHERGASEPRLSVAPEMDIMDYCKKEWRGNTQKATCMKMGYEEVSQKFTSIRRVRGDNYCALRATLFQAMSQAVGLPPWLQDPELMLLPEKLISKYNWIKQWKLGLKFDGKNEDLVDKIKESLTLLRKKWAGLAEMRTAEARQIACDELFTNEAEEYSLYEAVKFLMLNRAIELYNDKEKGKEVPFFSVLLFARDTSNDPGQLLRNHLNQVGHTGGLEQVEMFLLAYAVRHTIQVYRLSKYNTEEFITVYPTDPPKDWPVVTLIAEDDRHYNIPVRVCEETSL
UniProt Q8N122: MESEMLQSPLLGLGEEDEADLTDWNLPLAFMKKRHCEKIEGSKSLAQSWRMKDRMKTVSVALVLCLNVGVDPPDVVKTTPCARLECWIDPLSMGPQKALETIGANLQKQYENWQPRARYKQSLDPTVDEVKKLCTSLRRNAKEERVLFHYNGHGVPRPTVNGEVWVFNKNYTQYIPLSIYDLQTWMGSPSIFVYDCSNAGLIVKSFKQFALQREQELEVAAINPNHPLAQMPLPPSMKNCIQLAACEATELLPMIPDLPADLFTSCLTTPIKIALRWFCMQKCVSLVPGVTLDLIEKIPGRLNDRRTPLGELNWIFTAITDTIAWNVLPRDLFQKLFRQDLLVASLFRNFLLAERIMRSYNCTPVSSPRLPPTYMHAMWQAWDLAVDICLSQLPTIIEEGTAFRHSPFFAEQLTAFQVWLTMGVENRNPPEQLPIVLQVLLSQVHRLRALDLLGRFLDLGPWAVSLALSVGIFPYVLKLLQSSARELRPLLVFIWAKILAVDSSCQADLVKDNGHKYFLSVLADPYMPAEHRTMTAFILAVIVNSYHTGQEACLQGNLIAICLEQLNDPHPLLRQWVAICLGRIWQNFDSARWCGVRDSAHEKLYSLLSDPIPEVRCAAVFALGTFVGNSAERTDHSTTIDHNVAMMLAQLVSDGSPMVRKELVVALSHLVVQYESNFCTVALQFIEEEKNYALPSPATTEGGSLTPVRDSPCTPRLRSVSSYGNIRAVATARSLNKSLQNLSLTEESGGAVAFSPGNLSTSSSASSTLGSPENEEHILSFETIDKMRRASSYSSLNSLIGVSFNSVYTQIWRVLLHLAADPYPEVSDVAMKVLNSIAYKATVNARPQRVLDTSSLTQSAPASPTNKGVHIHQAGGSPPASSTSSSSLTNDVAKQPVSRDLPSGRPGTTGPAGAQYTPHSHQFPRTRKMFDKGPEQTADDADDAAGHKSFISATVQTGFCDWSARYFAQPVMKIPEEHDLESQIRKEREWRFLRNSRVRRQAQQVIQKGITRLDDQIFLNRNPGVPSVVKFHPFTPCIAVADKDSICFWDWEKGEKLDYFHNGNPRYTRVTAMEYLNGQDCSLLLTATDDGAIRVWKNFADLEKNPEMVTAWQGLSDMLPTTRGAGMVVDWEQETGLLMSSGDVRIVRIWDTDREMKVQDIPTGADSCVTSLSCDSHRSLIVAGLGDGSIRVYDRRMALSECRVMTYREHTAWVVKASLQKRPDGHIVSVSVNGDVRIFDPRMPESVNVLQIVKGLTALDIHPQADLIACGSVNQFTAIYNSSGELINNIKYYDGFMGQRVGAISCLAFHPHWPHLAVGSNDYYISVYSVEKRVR

Results are given in words; binding and its absence hold for the method and conditions named. In cells and extracts the contact can be indirect. A yes stands for co-enrichment or nearness to the bait. Other partners may have been found.

Regarding “RAPTOR, endogenous (from UniProt Q8N122 1-1335)”, the binding result was “binds”.

(Values after article doi:10.1101/2024.11.08.622598.)
